Assay results published in patent US20210355180A1.
No constants are given. Whether binding was seen depends on the method and setting. Some binding calls cover weakened binding; strength is not graded here.

Experiments:
[1] = biological target: C-terminally biotinylated Aβ1-40 peptide (human); assay: flow cytometry, on-cell off-rate ranking with unlabeled Aβ1-40
[2] = biological target: C-terminally biotinylated Aβ1-40 peptide (human); assay: flow cytometry, S. carnosus display, 1 nM biotinylated Aβ1-40

| binding [1] | binding [2] | Binder |
| --- | --- | --- |
| binds | binds | ABPP078 displayed on S. carnosus (designed binder) AGRERVYLPNLNAHQLCAFINSLEDDPSQSANLLAEAKKLNDAQAPASSSSGSSSSGRASAGGEIVYLPNLNAHQLCAFIQSLEDDPSQSANLLAEAKKLNDAQAPKKLLDALAKAKADALKEFNKYGVSDYYKNLINNAKTVEGVKDLQAQVVESAKKARISEATDGLSDFLKSQTPAEDTVKSIELAEAKVLANRELDKYGVSDYHKNLINNAKTVEGVKDLQAQVVESAKKARISEATDGLSDFLKSQTPAEDTVKSIELAEAKVLANRELDKYGVSDYYKNLINNAKTVEGVKALIDEILAALP |
| binds | binds | ABPP096 displayed on S. carnosus (designed binder) AGGERVYFPNLNAHQLCAFIRSLEDDPSQQANLLAEAKKLNDAQAPASSSSGSSSSGRASAGRERVYLPNLNADQLCAFIQSLEDDPSQRANLLAEAKKLNDAQAPKKLLDALAKAKADALKEFNKYGVSDYYKNLINNAKTVEGVKDLQAQVVESAKKARISEATDGLSDFLKSQTPAEDTVKSIELAEAKVLANRELDKYGVSDYHKNLINNAKTVEGVKDLQAQVVESAKKARISEATDGLSDFLKSQTPAEDTVKSIELAEAKVLANRELDKYGVSDYYKNLINNAKTVEGVKALIDEILAALP |
| binds | binds | (ZAβ3A12)2 displayed on S. carnosus (designed binder) AGGEIVYLPNLNPDQLCAFIHSLHDDPSQSANLLAEAKKLNDAQAPKSSSGSSSGRASAGGEIVYLPNLNPDQLCAFIHSLHDDPSQSANLLAEAKKLNDAQAPKKLLDALAKAKADALKEFNKYGVSDYYKNLINNAKTVEGVKDLQAQVVESAKKARISEATDGLSDFLKSQTPAEDTVKSIELAEAKVLANRELDKYGVSDYHKNLINNAKTVEGVKDLQAQVVESAKKARISEATDGLSDFLKSQTPAEDTVKSIELAEAKVLANRELDKYGVSDYYKNLINNAKTVEGVKALIDEILAALP |
